This is one part of the list.
What was measured:
Assay in all cases: log2 fold change, soluble protein after heating vs DMSO (PISA); higher = thermal stabilisation; K562 lysate, 10 uM; active = over 0.2 and 3.5 SD of the protein, either way, in both replicates (recomputed)
[1] = compound: C#Cc1cccc(Nc2ncnc3cc(OCCOC)c(OCCOC)cc23)c1 [erlotinib]
Outline: (§1)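 The values are log-two fold changes in thermal stability compared with solvent controls and come from duplicates. They were obtained by TMTpro 16plex LC-MS/MS, with channel sums equalised, on the supernatant after 21,000xg for 90 min. That supernatant came from crude K562 extract at 1 mg/mL protein treated with 10 μM compound for 30 min, heated for 3 min across 48°C-58°C, pooled and brought to 0.5% NP-40 at 4°C.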

Amino acid sequences for entries named in this document (tags omitted). A change or cut given only in a name is not applied to a line headed by its entry.
UniProt Q9BZD4: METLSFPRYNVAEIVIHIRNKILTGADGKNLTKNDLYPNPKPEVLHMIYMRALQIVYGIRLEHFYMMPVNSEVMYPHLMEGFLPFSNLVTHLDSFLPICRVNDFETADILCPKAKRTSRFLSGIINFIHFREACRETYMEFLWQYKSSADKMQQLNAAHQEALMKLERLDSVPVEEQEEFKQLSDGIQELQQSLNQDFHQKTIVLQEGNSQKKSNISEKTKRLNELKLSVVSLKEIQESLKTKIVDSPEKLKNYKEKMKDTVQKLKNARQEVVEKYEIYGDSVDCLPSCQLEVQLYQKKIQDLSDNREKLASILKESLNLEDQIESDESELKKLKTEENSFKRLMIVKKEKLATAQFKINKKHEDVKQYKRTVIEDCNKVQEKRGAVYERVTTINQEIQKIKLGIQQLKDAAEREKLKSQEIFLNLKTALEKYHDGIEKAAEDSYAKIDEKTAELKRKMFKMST
UniProt P15559, whole entry, looked up: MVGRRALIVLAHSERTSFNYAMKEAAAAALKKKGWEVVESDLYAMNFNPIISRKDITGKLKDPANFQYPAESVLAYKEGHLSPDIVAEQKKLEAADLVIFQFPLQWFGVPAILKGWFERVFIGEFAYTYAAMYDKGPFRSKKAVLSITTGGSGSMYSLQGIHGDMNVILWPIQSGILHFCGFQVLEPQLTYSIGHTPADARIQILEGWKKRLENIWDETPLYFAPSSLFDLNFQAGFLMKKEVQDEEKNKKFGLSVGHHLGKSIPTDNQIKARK
UniProt Q9NXX6: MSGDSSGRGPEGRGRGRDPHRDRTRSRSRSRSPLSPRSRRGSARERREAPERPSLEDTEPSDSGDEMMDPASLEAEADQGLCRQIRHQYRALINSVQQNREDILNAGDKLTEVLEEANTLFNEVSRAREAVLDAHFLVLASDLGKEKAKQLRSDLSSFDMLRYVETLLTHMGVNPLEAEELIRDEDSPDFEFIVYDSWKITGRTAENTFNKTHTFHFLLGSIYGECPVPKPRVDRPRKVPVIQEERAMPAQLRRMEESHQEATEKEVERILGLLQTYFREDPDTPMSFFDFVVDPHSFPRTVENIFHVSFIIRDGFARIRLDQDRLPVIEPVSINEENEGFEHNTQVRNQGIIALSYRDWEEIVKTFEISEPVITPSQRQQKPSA
UniProt Q8TEA1: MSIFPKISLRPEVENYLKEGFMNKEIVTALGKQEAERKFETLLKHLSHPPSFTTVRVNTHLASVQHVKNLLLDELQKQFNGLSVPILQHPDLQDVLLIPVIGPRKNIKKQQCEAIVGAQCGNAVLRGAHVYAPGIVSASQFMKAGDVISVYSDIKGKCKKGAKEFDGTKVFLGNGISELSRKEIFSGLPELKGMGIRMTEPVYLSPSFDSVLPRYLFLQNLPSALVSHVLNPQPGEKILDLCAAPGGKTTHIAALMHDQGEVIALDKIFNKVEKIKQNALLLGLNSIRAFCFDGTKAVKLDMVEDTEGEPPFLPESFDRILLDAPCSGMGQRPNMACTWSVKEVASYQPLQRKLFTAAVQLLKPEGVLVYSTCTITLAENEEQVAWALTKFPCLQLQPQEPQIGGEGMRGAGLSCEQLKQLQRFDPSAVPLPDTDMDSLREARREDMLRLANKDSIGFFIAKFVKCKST
UniProt Q9H1E3: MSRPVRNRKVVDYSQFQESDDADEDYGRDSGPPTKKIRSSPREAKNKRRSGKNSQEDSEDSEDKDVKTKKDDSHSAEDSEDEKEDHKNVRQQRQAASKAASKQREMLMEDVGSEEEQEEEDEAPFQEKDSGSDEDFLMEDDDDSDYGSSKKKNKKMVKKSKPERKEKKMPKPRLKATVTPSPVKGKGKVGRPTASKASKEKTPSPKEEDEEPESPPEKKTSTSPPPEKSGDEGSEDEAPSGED
UniProt Q9BSC4: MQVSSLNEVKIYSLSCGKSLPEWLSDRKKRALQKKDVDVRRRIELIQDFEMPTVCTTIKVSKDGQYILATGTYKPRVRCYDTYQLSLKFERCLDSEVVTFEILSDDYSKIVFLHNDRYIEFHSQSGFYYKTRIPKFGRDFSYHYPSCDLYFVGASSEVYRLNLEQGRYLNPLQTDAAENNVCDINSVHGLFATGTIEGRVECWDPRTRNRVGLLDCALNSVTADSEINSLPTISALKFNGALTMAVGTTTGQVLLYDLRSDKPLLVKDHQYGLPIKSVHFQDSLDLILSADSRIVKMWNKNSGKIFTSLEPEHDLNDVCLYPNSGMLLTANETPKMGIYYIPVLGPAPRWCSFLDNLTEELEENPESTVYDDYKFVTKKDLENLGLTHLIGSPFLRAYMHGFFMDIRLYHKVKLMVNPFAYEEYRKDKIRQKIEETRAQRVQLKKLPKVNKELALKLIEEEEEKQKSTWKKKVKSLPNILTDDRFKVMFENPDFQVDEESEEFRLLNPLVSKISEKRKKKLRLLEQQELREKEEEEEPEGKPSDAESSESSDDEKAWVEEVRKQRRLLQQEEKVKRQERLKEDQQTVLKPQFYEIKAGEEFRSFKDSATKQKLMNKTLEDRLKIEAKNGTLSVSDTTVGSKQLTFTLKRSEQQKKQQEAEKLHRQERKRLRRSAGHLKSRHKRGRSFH
UniProt P57740: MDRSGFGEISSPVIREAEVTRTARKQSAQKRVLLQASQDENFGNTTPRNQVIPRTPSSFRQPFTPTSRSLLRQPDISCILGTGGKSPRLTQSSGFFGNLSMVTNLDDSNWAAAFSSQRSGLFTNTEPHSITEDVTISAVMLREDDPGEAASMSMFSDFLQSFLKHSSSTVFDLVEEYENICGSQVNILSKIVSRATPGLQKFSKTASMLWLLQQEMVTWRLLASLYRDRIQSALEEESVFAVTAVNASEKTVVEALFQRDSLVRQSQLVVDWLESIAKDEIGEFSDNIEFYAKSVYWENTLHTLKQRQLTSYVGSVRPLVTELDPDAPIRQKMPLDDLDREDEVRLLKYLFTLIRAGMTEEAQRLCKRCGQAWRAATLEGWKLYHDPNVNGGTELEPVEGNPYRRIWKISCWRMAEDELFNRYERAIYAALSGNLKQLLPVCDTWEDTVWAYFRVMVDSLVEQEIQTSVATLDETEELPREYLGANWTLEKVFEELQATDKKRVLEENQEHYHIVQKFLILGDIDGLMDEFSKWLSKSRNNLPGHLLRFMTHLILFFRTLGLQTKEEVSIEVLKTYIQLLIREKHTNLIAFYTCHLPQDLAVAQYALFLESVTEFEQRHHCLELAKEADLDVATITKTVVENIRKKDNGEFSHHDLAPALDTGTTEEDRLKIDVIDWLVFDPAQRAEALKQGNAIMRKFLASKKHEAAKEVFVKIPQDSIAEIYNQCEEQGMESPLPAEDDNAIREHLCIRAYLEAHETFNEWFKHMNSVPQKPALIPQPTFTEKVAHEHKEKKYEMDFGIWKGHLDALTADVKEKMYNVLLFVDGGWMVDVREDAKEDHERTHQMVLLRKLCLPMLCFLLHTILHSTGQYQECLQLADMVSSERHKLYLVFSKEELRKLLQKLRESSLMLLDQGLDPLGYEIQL
UniProt Q9BW91: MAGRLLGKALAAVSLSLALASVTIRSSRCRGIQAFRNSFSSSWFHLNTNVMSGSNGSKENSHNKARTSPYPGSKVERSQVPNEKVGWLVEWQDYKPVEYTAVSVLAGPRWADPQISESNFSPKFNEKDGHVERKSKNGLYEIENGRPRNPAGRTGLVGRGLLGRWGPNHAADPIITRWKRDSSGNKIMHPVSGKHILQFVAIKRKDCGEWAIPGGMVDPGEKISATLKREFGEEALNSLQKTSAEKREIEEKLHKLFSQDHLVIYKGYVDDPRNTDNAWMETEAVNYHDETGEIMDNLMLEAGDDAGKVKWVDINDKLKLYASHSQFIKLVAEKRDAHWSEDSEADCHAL
UniProt Q9HBL8: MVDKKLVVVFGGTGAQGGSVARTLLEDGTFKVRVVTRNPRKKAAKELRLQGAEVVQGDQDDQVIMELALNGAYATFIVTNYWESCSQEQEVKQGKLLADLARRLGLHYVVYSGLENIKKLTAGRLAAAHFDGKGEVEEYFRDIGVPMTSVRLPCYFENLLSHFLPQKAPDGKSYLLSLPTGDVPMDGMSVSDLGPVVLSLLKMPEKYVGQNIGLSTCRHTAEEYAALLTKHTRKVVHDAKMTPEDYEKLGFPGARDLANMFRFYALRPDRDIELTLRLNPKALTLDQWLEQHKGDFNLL
UniProt Q15233: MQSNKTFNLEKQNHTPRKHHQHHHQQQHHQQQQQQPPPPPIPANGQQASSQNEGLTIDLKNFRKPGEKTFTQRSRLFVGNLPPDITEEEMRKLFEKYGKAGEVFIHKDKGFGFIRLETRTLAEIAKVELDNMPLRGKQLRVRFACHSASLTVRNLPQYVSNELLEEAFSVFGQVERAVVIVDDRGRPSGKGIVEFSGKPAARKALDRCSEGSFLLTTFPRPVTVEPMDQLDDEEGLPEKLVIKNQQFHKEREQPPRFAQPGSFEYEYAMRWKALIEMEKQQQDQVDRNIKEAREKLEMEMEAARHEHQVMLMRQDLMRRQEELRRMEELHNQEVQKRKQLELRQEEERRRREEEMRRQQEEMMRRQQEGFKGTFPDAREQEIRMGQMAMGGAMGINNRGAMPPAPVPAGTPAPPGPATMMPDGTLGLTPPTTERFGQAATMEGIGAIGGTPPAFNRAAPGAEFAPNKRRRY
UniProt Q9Y2X3: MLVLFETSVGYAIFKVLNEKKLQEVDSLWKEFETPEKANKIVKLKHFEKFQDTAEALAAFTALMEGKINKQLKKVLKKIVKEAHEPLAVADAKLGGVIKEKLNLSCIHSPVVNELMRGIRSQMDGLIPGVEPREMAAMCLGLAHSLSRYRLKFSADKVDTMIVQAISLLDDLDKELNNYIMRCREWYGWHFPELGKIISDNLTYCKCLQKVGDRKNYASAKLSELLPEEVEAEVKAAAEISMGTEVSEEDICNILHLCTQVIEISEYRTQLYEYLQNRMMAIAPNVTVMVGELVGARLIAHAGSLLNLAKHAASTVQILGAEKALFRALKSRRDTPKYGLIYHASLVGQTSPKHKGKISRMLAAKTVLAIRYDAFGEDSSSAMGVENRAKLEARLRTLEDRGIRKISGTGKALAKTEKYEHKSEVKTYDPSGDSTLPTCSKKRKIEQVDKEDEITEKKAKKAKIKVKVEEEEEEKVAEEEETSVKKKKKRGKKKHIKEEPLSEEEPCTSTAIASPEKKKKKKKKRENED
UniProt O75694: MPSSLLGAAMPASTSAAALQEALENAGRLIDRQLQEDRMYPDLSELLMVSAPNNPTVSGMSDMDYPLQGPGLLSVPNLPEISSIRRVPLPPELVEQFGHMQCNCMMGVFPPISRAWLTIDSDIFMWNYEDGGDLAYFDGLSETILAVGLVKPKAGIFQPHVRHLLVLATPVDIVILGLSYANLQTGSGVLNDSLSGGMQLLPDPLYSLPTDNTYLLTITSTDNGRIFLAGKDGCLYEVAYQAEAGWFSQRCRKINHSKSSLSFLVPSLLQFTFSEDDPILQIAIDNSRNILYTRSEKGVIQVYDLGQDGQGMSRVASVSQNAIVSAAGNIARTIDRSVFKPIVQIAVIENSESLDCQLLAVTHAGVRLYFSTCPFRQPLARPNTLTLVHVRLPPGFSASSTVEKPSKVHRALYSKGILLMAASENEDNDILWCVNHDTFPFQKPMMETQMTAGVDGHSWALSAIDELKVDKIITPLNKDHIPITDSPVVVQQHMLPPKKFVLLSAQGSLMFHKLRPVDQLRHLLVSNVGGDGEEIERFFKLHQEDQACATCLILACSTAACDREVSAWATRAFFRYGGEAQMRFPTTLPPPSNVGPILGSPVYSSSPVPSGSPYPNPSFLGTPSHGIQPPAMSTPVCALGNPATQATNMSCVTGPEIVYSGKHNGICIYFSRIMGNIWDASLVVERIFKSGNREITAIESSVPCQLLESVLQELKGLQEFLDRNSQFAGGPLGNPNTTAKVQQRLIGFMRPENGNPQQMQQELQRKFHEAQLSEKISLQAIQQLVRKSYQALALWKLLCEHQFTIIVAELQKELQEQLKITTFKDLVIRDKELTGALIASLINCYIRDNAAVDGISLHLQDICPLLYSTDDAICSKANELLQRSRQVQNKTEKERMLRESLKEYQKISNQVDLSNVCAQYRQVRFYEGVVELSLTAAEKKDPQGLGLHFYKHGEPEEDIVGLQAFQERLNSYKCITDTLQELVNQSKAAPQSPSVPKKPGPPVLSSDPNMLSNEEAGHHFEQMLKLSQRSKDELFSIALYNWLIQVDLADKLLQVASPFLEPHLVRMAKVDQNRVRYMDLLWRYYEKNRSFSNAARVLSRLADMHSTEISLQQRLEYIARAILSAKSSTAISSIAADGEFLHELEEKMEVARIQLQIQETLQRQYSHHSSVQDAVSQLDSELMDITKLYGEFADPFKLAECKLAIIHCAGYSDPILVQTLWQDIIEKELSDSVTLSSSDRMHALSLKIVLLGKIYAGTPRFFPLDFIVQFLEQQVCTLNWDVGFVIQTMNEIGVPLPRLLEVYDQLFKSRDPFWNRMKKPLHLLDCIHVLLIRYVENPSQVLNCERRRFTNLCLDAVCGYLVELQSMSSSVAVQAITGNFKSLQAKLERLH

[2] = compound: C/C(=N\NC(=O)C1=CC(=CC=C1)S(=O)(=O)N2CCOCC2)/C3=C(C=CC(=C3)Cl)O
Outline: as §1

[3] = compound: C1=CC(=CC=C1C2=NC3=C(N2)C=C(C=C3)C(=O)N)OC4=CC=C(C=C4)Cl
Outline: as §1

[4] = compound: C1=CC2=C(C=CC(=C2)/C=C\3/C(=O)NC(=NCC4=CC=CS4)S3)N=C1
Outline: as §1

[5] = compound: C1=CC2=NC=CN=C2C=C1/C=C/3\C(=O)NC(=O)S3
Outline: as §1

[6] = compound: C1=CC=C(C=C1)C2=NC(=C(N2)C3=CC=NC=C3)C4=CC(=C(C=C4)Cl)O
Outline: as §1

[7] = compound: C1=CC=C2C(=C1)C3=NNC4=CC=CC(=C43)C2=O
Outline: as §1

[8] = compound: C1CCN(C1)C(=O)NC2=CC=CC(=C2)NC3=NC=C(C(=N3)NCCC4=CN=CN4)Br
Outline: as §1

[9] = compound: C1CN(CCC1(CC2=CC=C(C=C2)Cl)N)C3=NC=NC4=C3C=CN4
Outline: as §1

[10] = compound: C1COCCN1CCN2C3=CC=CC=C3N=C2NC(=O)C4=CC(=CC=C4)[N+](=O)[O-] [IRAK-1-4 Inhibitor I]
Outline: as §1

[11] = compound: C=CC(=O)N1CCC[C@@H](n2nc(-c3ccc(Oc4ccccc4)cc3)c3c(N)ncnc32)C1 [ibrutinib]
Outline: as §1

[12] = compound: CC(=O)c1cnc2ccc(-c3cc(Cl)c(O)c(Cl)c3)nc2c1N[C@H]1CC[C@H](CN(C)C)CC1
Outline: as §1

[13] = compound: CC(C)(C)Cn1c(N)nc2ccc(-c3[nH]c(C(C)(C)C)nc3-c3ccc(F)cc3)nc21 [ralimetinib]
Outline: as §1

[14] = compound: CC(C)(O)CC(=O)NCCn1ccc2ncnc(Nc3ccc(Oc4cccc(C(F)(F)F)c4)c(Cl)c3)c21
Outline: as §1

[15] = compound: CC(C)C1=C2N=C(C=C(N2N=C1)NCC3=CC=CC=C3)NCCCCCCN
Outline: as §1

[16] = compound: CC1=C(C(CC(=O)N1)C2=CC=C(C=C2)C(F)(F)F)C(=O)NC3=C(C=C4C(=C3)C=NN4)F
Outline: as §1

[17] = compound: CC1=C(C2=C(C=C1)C(=O)C3=CC=CC=C3N2CCCN)C
Outline: as §1

[18] = compound: CC1=C(C=C(C=C1)NC(=O)C2=CC(=CC=C2)C(C)(C)C#N)NC3=CC4=C(C=C3)N=CN(C4=O)C
Outline: as §1

[19] = compound: CC1=C(C=C(C=C1)NC(=O)C2=CC(=CC=C2)N(C)C)NC(=O)C3=CC=C(C=C3)O
Outline: as §1

[20] = compound: CC1=CC=C(C=C1)SC2=C3C=C(SC3=CN=C2)C(=O)N
Outline: as §1

Measured: log2 fold change

NNMT (UniProt P40261)
inactive: [1] -0.015 | [2] 0.003 | [3] 0.045 | [4] -0.001 | [5] -0.003 | [6] 0.032 | [7] -0.019 | [8] -0.002 | [9] -0.006 | [10] -0.024 | [11] -0.026 | [12] -0.037 | [13] 0.011 | [14] -0.019 | [15] -0.05 | [16] -0.053 | [17] 0.026 | [18] 0.06 | [19] 0.016 | [20] -0.034

NUF2 (UniProt Q9BZD4)
inactive: [1] 0.009 | [2] 0.006 | [3] -0.012 | [4] 0.03 | [5] -0.002 | [6] -0.047 | [7] -0.047 | [8] -0.039 | [9] -0.004 | [10] -0.039 | [11] -0.052 | [12] -0.051 | [13] 0.03 | [14] 0.015 | [15] -0.001 | [16] 0.018 | [17] 0.027 | [18] -0.011 | [19] 0.044 | [20] 0.009

NQO1 (UniProt P15559)
inactive: [1] -0.033 | [2] 0.081 | [3] 0.055 | [4] -0.08 | [5] -0.02 | [6] -0.022 | [7] -0.192 | [8] 0.005 | [9] 0.006 | [10] -0.017 | [11] 0.009 | [12] -0.003 | [13] 0.033 | [14] 0.081 | [15] -0.009 | [16] 0.001 | [17] 0.159 | [18] 0.038 | [19] -0.025 | [20] 0.067

NSMCE4A (UniProt Q9NXX6)
inactive: [1] 0.01 | [2] -0.054 | [3] -0.003 | [4] 0.013 | [5] -0.013 | [6] 0.008 | [7] -0.044 | [8] -0.008 | [9] 0.039 | [10] 0.034 | [11] -0.089 | [12] 0.021 | [13] 0.034 | [14] 0.015 | [15] -0.023 | [16] 0.021 | [17] 0.054 | [18] -0.01 | [19] -0.024 | [20] 0.032

NSUN6 (UniProt Q8TEA1)
inactive: [1] 0.013 | [2] -0.046 | [3] -0.005 | [4] -0.012 | [5] -0.011 | [6] -0.009 | [7] -0.058 | [8] 0.013 | [9] 0.005 | [10] -0.014 | [11] 0.036 | [12] -0.005 | [13] 0.047 | [14] 0.006 | [15] 0.011 | [16] 0.031 | [17] -0.053 | [18] -0.006 | [19] 0.018 | [20] -0.037

NUCKS1 (UniProt Q9H1E3)
inactive: [1] 0.009 | [2] 0.009 | [3] 0.029 | [4] 0.037 | [5] 0.009 | [6] 0.007 | [7] -0.028 | [8] 0.021 | [9] 0.013 | [10] 0.032 | [11] -0.017 | [12] -0.002 | [13] -0.022 | [14] -0.048 | [15] -0.007 | [16] -0.033 | [17] 0.001 | [18] -0.009 | [19] 0.009 | [20] -0.026

NOL10 (UniProt Q9BSC4)
inactive: [1] -0.01 | [2] -0.031 | [3] 0.015 | [4] 0.005 | [5] 0.106 | [6] -0.065 | [7] 0.044 | [8] -0.142 | [9] -0.04 | [10] -0.015 | [11] 0.04 | [12] -0.029 | [13] 0.014 | [14] 0.065 | [15] 0.255 | [16] -0.177 | [17] -0.037 | [18] -0.017 | [19] 0.069 | [20] 0.025

NSMCE3 (UniProt Q96MG7)
inactive: [1] 0.065 | [2] 0.016 | [3] 0.036 | [4] 0 | [5] -0.022 | [6] -0.031 | [7] -0.038 | [8] -0.059 | [9] 0.067 | [10] -0.017 | [11] -0.002 | [12] 0.013 | [13] 0 | [14] -0.03 | [15] -0.003 | [16] 0.015 | [17] -0.064 | [18] 0.02 | [19] 0.032 | [20] 0.029

NUP107 (UniProt P57740)
inactive: [1] 0.028 | [2] 0.035 | [3] 0.001 | [4] 0.028 | [5] -0.021 | [6] 0.003 | [7] -0.012 | [8] 0.005 | [9] 0.018 | [10] -0.015 | [11] -0.001 | [12] -0.013 | [13] 0.031 | [14] 0.059 | [15] -0.021 | [16] 0.044 | [17] -0.037 | [18] -0.004 | [19] 0.03 | [20] 0.007

2 successive entries already listed, quoted:
NQO1 (UniProt P15559)
inactive: [1] -0.033 | [2] 0.081 | [3] 0.055 | [4] -0.08 | [5] -0.02 | [6] -0.022 | [7] -0.192 | [8] 0.005 | [9] 0.006 | [10] -0.017 | [11] 0.009 | [12] -0.003 | [13] 0.033 | [14] 0.081 | [15] -0.009 | [16] 0.001 | [17] 0.159 | [18] 0.038 | [19] -0.025 | [20] 0.067

NSMCE4A (UniProt Q9NXX6)
inactive: [1] 0.01 | [2] -0.054 | [3] -0.003 | [4] 0.013 | [5] -0.013 | [6] 0.008 | [7] -0.044 | [8] -0.008 | [9] 0.039 | [10] 0.034 | [11] -0.089 | [12] 0.021 | [13] 0.034 | [14] 0.015 | [15] -0.023 | [16] 0.021 | [17] 0.054 | [18] -0.01 | [19] -0.024 | [20] 0.032

Later entries:

NUDT9 (UniProt Q9BW91)
inactive: [1] 0.01 | [2] -0.059 | [3] 0.055 | [4] -0.057 | [5] -0.015 | [6] -0.022 | [7] 0.011 | [8] 0.007 | [9] 0.012 | [10] 0.012 | [11] -0.012 | [12] 0.005 | [13] 0.022 | [14] -0.055 | [15] -0.002 | [16] -0.006 | [17] -0.002 | [18] 0.007 | [19] 0.008 | [20] -0.023

NT5C3A (UniProt Q9H0P0)
inactive: [1] 0.031 | [2] 0.047 | [3] -0.002 | [4] 0.026 | [5] 0.012 | [6] -0.028 | [7] 0.021 | [8] 0.032 | [9] 0.016 | [10] -0.021 | [11] -0.015 | [12] -0.035 | [13] -0.034 | [14] -0.053 | [15] 0.017 | [16] -0.029 | [17] 0.029 | [18] 0.012 | [19] -0.049 | [20] -0.012

NSUN5 isoform 2 (UniProt Q96P11)
inactive: [1] -0.007 | [2] -0.016 | [3] -0.074 | [4] 0.07 | [5] 0.004 | [6] -0.006 | [7] -0.041 | [8] 0.009 | [9] 0.024 | [10] -0.047 | [11] 0.011 | [12] 0.04 | [13] 0.036 | [14] -0.019 | [15] -0.009 | [16] 0.014 | [17] 0.03 | [18] -0.023 | [19] 0.027 | [20] -0.005

NMRAL1 (UniProt Q9HBL8)
inactive: [1] 0.008 | [2] 0.012 | [3] -0.111 | [4] -0.011 | [5] -0.037 | [6] -0.054 | [7] 0.141 | [8] 0.024 | [9] 0.001 | [10] -0.02 | [11] 0.122 | [12] 0.021 | [13] 0.06 | [14] 0.012 | [15] -0.03 | [16] 0.047 | [17] -0.048 | [18] -0.01 | [19] -0.016 | [20] 0

NONO (UniProt Q15233)
inactive: [1] 0.021 | [2] -0.048 | [3] 0 | [4] -0.006 | [5] -0.017 | [6] 0.025 | [7] -0.027 | [8] 0.014 | [9] 0.002 | [10] 0.005 | [11] -0.013 | [12] 0.006 | [13] 0.008 | [14] -0.002 | [15] 0.006 | [16] -0.006 | [17] -0.006 | [18] -0.016 | [19] 0.015 | [20] 0.014

NOP58 (UniProt Q9Y2X3)
inactive: [1] 0.021 | [2] 0.059 | [3] -0.006 | [4] 0.035 | [5] -0.008 | [6] 0.036 | [7] 0.042 | [8] -0.008 | [9] 0.006 | [10] -0.028 | [11] 0.003 | [12] -0.007 | [13] -0.03 | [14] -0.018 | [15] 0.004 | [16] -0.003 | [17] -0.027 | [18] -0.009 | [19] 0.006 | [20] 0.015

NUP155 (UniProt O75694)
inactive: [1] -0.039 | [2] 0.046 | [3] 0.027 | [4] -0.035 | [5] -0.055 | [6] -0.056 | [7] -0.085 | [8] 0.037 | [9] 0.049 | [10] -0.002 | [11] -0.004 | [12] -0.015 | [13] 0.122 | [14] -0.059 | [15] -0.009 | [16] 0.043 | [17] -0.051 | [18] -0.036 | [19] 0 | [20] -0.035
